# Test results taken from the supplement of paper PMC8728848.
# Some of the results follow.
# B1: CcfD (Bacteroides vulgatus), A6KYX8 (protein)
# chain: MKYKNYFKSIIYLALGAFTLGSCEDFLDRQEDEKLTFDKIWESRNTTQQYWLNAMSFLPNENGSLQGDTEPYLGASDECTIAYDRQYRWINFGTWNPSQVPYYKMDHYYKGIRECNIFLQNVYKCSDPLVTKDQLDEWYWQTRFARAYYYFLMMRDYGPVFLLGDDLLDFTASTEELYRPRNTWDQCVNYVVSEMTQCAESGVVLQQSDLPAAKWGLATVGTCHAVISRLLLYSARPLFNGNKLYSTVKNPDAPDFPELSGVKLFPELDNTKWQKAAEAAKKLIDNPCYELYRAGNDNPYEDYYGVTHETWNKELIWTDRYNGLFSWGVGTVPTGVAGTAYGAVGPTQALVDAYAMNTGWYPITGYEADGTPIVEPLSGYELASELEKSSWIYPSGGWSNKADFEIEAPNMYKDREPRFYVTVFFGGNQWLHGNSATSISFAKGGNGNKSHDYPKSGYLCNRFYDHKLNSSEGQWGNITFPVFRLGEIYLNFIEAVLECKKNGVALDPSYEALAMEKWADLRKRAGLDPITSIYGQVSTEELIQLCRKERQIELAFERHRYFDTRTWMIATQTDNGKMYGMNTSCPLDAGMKGTETPDGFWERTAFETRVFQNKHYLYPFSQRELDRNKLLTQNYGW
# How the values were obtained:
# Assay in all cases: glycan array binding signal (z-score within array); higher = stronger binding
# Details in all cases: glycan notation: IUPAC condensed, linker removed
# Fuc(a1-2)Gal = biological target: Fuc(a1-2)Gal
# Outline: (§1)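 The binding signal is a Z-score computed within each array. Data were drawn from 3228 arrays in the Consortium for Functional Glycomics database, restricted to those with a known protein sequence. Scores were averaged over arrays of the same protein sequence at different concentrations or buffers, and over linkers, and negative values can be taken as non-binding.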
# Fuc(a1-2)Gal(b1-3)GalNAc = biological target: Fuc(a1-2)Gal(b1-3)GalNAc
# Outline: as §1
# [1] = biological target: Fuc(a1-2)Gal(b1-3)GalNAc(a1-3)[Fuc(a1-2)]Gal(b1-4)Glc
# Outline: as §1
# [2] = biological target: Fuc(a1-2)Gal(b1-3)GalNAc(a1-3)[Fuc(a1-2)]Gal(b1-4)GlcNAc
# Outline: as §1
# [3] = biological target: Fuc(a1-2)Gal(b1-3)GalNAc(b1-3)Gal
# Outline: as §1
# [4] = biological target: Fuc(a1-2)Gal(b1-3)GalNAc(b1-3)Gal(a1-4)Gal(b1-4)Glc
# Outline: as §1
# [5] = biological target: Fuc(a1-2)Gal(b1-3)GalNAc(b1-4)[Neu5Ac(a2-3)]Gal(b1-4)Glc
# Outline: as §1
# Fuc(a1-2)Gal(b1-3)GlcNAc = biological target: Fuc(a1-2)Gal(b1-3)GlcNAc
# Outline: as §1
# [6] = biological target: Fuc(a1-2)Gal(b1-3)GlcNAc(b1-2)Man(a1-3)[Fuc(a1-2)Gal(b1-3)GlcNAc(b1-2)Man(a1-6)]Man(b1-4)GlcNAc(b1-4)GlcNAc
# Outline: as §1
# [7] = biological target: Fuc(a1-2)Gal(b1-3)GlcNAc(b1-2)Man(a1-3)[Fuc(a1-2)Gal(b1-3)GlcNAc(b1-2)Man(a1-6)]Man(b1-4)GlcNAc(b1-4)[Fuc(a1-6)]GlcNAc
# Outline: as §1
# [8] = biological target: Fuc(a1-2)Gal(b1-3)GlcNAc(b1-3)Gal(b1-4)Glc
# Outline: as §1
# [9] = biological target: Fuc(a1-2)Gal(b1-3)GlcNAc(b1-3)GalNAc
# Outline: as §1
# [10] = biological target: Fuc(a1-2)Gal(b1-3)GlcNAc(b1-3)[Fuc(a1-2)Gal(b1-3)GlcNAc(b1-6)]GalNAc
# Outline: as §1
# [11] = biological target: Fuc(a1-2)Gal(b1-3)GlcNAc(b1-3)[Gal(b1-4)GlcNAc(b1-6)]Gal(b1-4)Glc
# Outline: as §1
# [12] = biological target: Fuc(a1-2)Gal(b1-3)GlcNAc(b1-3)[Neu5Ac(a2-6)Gal(b1-4)GlcNAc(b1-6)]Gal(b1-4)Glc
# Outline: as §1
# [13] = biological target: Fuc(a1-2)Gal(b1-3)GlcNAc6S
# Outline: as §1
# [14] = biological target: Fuc(a1-2)Gal(b1-3)[Fuc(a1-4)]GlcNAc
# Outline: as §1
# [15] = biological target: Fuc(a1-2)Gal(b1-3)[Fuc(a1-4)]GlcNAc(b1-2)Man(a1-3)[Fuc(a1-2)Gal(b1-3)[Fuc(a1-4)]GlcNAc(b1-2)Man(a1-3)]Man(b1-4)GlcNAc(b1-4)GlcNAc
# Outline: as §1
# [16] = biological target: Fuc(a1-2)Gal(b1-3)[Fuc(a1-4)]GlcNAc(b1-2)Man(a1-3)[Fuc(a1-2)Gal(b1-3)[Fuc(a1-4)]GlcNAc(b1-2)Man(a1-6)]Man(b1-4)GlcNAc(b1-4)[Fuc(a1-6)]GlcNAc(b1-4)[Fuc(a1-6)]GlcNAc
# Outline: as §1
# [17] = biological target: Fuc(a1-2)Gal(b1-3)[Fuc(a1-4)]GlcNAc(b1-3)[Fuc(a1-3)[Gal(b1-4)]GlcNAc(b1-6)]Gal(b1-4)Glc
# Outline: as §1
# [18] = biological target: Fuc(a1-2)Gal(b1-3)[Fuc(a1-4)]GlcNAc(b1-3)[Gal(b1-4)GlcNAc(b1-6)]Gal(b1-4)Glc
# Outline: as §1
# [19] = biological target: Fuc(a1-2)Gal(b1-4)Fuc(a1-3)]GlcNAc(b1-2)Man(a1-3)[Fuc(a1-2)Gal(b1-4)[Fuc(a1-3)]GlcNAc(b1-2)Man(a1-6)]Man(b1-4)GlcNAc(b1-4)GlcNAc
# Outline: as §1
# Fuc(a1-2)Gal(b1-4)Glc = biological target: Fuc(a1-2)Gal(b1-4)Glc
# Outline: as §1
# Fuc(a1-2)Gal(b1-4)Glc6S = biological target: Fuc(a1-2)Gal(b1-4)Glc6S
# Outline: as §1
# Fuc(a1-2)Gal(b1-4)GlcNAc = biological target: Fuc(a1-2)Gal(b1-4)GlcNAc
# Outline: as §1
# [20] = biological target: Fuc(a1-2)Gal(b1-4)GlcNAc(b1-2)Man
# Outline: as §1
# [21] = biological target: Fuc(a1-2)Gal(b1-4)GlcNAc(b1-2)Man(a1-3)[Fuc(a1-2)Gal(b1-4)GlcNAc(b1-2)Man(a1-6)]Man(b1-4)GlcNAc(b1-4)GlcNAc
# Outline: as §1
# [22] = biological target: Fuc(a1-2)Gal(b1-4)GlcNAc(b1-2)Man(a1-3)[Fuc(a1-2)Gal(b1-4)GlcNAc(b1-2)Man(a1-6)]Man(b1-4)GlcNAc(b1-4)[Fuc(a1-6)]GlcNAc
# Outline: as §1
# [23] = biological target: Fuc(a1-2)Gal(b1-4)GlcNAc(b1-2)[Fuc(a1-2)Gal(b1-4)GlcNAc(b1-4)]Man(a1-3)[Fuc(a1-2)Gal(b1-4)GlcNAc(b1-2)Man(a1-6)]Man(b1-4)GlcNAc(b1-4)GlcNAc
# Outline: as §1
# [24] = biological target: Fuc(a1-2)Gal(b1-4)GlcNAc(b1-3)Gal(b1-4)GlcNAc
# Outline: as §1
binder,measurement,setting,value
B1,glycan array binding signal (z-score),Fuc(a1-2)Gal,0.105
same,glycan array binding signal (z-score),Fuc(a1-2)Gal(b1-3)GalNAc,-0.122
same,glycan array binding signal (z-score),[1],-0.18
same,glycan array binding signal (z-score),[2],-0.896
same,glycan array binding signal (z-score),[3],-0.566
same,glycan array binding signal (z-score),[4],-0.495
same,glycan array binding signal (z-score),[5],0.224
same,glycan array binding signal (z-score),Fuc(a1-2)Gal(b1-3)GlcNAc,-0.007
same,glycan array binding signal (z-score),[6],2.03
same,glycan array binding signal (z-score),[7],-0.835
same,glycan array binding signal (z-score),[8],0.166
same,glycan array binding signal (z-score),[9],0.364
same,glycan array binding signal (z-score),[10],-0.266
same,glycan array binding signal (z-score),[11],-0.175
same,glycan array binding signal (z-score),[12],1.24
same,glycan array binding signal (z-score),[13],2.05
same,glycan array binding signal (z-score),[14],0.42
same,glycan array binding signal (z-score),[15],0.033
same,glycan array binding signal (z-score),[16],0.354
same,glycan array binding signal (z-score),[17],-0.566
same,glycan array binding signal (z-score),[18],-0.388
same,glycan array binding signal (z-score),[19],2
same,glycan array binding signal (z-score),Fuc(a1-2)Gal(b1-4)Glc,-1.1
same,glycan array binding signal (z-score),Fuc(a1-2)Gal(b1-4)Glc6S,-0.343
same,glycan array binding signal (z-score),Fuc(a1-2)Gal(b1-4)GlcNAc,0.328
same,glycan array binding signal (z-score),[20],-0.185
same,glycan array binding signal (z-score),[21],4.7
same,glycan array binding signal (z-score),[22],0.806
same,glycan array binding signal (z-score),[23],-0.414
same,glycan array binding signal (z-score),[24],0.902

# A different layout for part of the listing above:
binder | measurement | setting | value
B1 | glycan array binding signal (z-score) | Fuc(a1-2)Gal(b1-3)GlcNAc | -0.007
same | glycan array binding signal (z-score) | Fuc(a1-2)Gal(b1-4)Glc6S | -0.343
